Data as given in the supplement of paper PMC6411743.
± gives the standard deviation of the averaged measurements. This is one part of the list.

Protein sequences, listed by entry. Tags and fused reporters are not part of them. Lines headed by an entry give the natural chain unless they say otherwise; changes in a name come on top.
UniProt O15397, whole entry: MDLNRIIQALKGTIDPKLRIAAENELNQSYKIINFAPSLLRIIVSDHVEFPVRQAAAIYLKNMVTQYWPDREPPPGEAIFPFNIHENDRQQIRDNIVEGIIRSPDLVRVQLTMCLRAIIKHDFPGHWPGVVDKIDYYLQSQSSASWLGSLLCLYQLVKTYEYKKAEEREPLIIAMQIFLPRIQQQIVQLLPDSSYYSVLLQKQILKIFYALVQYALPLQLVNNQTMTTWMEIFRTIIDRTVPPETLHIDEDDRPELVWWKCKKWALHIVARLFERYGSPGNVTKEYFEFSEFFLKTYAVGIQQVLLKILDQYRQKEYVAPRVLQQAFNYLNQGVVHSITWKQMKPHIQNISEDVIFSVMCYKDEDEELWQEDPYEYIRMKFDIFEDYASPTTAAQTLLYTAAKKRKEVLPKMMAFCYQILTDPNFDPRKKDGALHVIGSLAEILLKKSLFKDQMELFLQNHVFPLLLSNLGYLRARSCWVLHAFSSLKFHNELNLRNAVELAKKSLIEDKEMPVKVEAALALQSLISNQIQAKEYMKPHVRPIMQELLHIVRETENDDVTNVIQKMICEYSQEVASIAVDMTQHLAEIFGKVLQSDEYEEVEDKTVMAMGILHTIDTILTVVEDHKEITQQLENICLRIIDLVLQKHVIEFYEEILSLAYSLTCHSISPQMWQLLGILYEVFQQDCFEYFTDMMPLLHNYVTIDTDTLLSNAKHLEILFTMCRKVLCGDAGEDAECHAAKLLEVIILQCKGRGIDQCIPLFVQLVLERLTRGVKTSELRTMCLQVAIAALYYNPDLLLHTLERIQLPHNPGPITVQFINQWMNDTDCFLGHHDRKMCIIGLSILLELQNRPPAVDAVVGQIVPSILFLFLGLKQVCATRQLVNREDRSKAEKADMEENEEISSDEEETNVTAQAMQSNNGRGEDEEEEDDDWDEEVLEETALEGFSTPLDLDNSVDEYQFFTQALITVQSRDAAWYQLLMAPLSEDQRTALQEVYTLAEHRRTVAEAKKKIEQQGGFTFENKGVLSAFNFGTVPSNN
UniProt O14530: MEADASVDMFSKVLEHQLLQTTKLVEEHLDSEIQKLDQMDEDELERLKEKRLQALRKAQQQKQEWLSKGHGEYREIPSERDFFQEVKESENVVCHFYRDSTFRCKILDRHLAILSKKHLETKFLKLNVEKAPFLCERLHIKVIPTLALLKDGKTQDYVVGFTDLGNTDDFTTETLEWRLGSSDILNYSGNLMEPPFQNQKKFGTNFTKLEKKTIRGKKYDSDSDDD
UniProt O43633: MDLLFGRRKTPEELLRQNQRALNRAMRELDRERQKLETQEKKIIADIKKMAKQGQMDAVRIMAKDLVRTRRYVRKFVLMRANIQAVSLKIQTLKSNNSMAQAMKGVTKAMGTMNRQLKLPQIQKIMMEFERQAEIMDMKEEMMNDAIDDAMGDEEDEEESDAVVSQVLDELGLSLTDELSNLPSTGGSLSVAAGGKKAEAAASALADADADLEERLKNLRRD
UniProt P04350, whole entry: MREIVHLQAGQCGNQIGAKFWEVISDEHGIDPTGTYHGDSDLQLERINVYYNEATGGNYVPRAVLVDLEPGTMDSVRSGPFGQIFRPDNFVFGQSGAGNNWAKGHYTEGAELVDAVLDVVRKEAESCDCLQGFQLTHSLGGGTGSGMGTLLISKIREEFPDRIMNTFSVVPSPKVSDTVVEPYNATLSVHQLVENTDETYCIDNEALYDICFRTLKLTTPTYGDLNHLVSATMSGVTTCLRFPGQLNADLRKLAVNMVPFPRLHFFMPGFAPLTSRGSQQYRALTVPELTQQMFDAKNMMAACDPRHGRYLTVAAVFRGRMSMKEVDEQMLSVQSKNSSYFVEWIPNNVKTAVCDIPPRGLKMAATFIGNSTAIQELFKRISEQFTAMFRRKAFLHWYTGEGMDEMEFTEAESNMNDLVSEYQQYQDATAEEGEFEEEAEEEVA
UniProt O60749: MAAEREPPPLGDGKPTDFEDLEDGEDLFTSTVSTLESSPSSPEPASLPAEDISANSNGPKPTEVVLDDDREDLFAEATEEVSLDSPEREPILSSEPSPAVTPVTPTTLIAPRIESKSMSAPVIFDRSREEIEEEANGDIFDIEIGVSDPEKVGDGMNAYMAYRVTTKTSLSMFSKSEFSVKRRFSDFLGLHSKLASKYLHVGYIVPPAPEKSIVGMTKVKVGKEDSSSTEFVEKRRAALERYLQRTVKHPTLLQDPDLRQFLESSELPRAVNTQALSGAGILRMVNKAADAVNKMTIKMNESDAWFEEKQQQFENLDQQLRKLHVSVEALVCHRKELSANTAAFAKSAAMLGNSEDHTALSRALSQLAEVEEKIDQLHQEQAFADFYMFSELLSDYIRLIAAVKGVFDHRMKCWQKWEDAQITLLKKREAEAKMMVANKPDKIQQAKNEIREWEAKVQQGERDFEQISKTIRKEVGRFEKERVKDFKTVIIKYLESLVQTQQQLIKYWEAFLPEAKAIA
UniProt O43181, whole entry: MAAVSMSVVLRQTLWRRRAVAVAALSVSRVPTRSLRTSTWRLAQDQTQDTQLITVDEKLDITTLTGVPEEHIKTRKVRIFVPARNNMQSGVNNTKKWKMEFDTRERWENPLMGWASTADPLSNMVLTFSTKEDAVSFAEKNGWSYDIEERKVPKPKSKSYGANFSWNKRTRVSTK
UniProt Q9UBE0: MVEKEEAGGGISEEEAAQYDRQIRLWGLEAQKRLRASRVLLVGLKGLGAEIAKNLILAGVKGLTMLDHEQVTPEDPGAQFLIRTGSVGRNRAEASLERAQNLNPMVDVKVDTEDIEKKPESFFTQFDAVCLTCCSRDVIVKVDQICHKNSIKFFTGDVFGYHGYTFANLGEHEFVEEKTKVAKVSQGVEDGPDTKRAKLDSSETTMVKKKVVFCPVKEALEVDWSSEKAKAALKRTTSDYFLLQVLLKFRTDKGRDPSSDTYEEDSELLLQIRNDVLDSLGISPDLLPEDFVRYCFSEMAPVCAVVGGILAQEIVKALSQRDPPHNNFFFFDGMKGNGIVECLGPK
UniProt O60669: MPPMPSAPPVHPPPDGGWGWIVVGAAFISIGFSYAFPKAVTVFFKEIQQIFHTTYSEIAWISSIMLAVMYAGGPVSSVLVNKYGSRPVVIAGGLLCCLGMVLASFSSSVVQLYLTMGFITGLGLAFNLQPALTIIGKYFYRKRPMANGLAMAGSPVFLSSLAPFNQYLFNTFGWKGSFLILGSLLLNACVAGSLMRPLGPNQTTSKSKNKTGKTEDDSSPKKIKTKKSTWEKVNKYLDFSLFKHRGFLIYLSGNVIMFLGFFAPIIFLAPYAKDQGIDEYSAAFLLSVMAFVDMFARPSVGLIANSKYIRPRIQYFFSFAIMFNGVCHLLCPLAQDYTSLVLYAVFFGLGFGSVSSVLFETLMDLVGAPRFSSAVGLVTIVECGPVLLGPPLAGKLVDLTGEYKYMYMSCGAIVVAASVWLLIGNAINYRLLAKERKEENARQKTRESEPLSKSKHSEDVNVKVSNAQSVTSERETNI
UniProt O60830: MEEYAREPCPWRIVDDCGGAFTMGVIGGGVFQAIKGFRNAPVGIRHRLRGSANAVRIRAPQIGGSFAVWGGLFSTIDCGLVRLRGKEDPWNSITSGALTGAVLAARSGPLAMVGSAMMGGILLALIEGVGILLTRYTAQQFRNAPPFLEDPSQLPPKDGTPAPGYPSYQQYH
UniProt O43920, whole entry: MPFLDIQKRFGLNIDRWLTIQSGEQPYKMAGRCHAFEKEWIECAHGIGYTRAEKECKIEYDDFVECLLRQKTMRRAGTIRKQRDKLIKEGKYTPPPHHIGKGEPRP
UniProt O14657: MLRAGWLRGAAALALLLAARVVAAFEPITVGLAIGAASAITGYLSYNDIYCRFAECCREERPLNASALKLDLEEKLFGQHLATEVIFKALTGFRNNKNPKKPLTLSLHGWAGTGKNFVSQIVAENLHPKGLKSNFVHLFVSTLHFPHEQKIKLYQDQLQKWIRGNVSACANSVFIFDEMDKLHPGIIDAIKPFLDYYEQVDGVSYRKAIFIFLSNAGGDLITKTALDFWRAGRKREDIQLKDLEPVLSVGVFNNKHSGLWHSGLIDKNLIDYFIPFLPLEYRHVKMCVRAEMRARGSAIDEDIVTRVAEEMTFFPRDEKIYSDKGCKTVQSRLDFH
UniProt O60784, whole entry: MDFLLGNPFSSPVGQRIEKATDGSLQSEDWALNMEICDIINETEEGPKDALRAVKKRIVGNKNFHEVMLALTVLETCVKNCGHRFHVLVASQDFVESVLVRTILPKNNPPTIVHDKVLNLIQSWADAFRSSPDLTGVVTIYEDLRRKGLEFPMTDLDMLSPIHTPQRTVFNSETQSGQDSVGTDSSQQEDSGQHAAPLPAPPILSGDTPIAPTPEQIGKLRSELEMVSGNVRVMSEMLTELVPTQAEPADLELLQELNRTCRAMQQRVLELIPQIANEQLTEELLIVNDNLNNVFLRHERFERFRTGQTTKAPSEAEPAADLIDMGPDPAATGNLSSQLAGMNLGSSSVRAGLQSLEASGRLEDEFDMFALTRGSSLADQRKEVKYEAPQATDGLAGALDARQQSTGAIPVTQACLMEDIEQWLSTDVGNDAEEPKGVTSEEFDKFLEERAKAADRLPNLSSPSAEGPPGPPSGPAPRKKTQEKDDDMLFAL
UniProt O60551: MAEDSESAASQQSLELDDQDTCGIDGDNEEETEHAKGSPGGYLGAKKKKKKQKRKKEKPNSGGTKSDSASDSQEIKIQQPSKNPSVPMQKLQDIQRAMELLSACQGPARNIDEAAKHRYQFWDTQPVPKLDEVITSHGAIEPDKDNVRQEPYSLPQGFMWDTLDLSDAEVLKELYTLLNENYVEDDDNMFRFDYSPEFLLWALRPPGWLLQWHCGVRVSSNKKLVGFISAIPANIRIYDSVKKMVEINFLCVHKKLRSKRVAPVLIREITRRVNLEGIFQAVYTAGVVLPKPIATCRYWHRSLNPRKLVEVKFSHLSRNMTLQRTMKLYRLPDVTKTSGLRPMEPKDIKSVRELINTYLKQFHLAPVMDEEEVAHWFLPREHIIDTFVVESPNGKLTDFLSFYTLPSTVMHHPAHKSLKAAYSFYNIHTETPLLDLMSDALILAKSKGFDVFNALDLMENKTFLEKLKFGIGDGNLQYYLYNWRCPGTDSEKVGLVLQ
UniProt Q8IV63: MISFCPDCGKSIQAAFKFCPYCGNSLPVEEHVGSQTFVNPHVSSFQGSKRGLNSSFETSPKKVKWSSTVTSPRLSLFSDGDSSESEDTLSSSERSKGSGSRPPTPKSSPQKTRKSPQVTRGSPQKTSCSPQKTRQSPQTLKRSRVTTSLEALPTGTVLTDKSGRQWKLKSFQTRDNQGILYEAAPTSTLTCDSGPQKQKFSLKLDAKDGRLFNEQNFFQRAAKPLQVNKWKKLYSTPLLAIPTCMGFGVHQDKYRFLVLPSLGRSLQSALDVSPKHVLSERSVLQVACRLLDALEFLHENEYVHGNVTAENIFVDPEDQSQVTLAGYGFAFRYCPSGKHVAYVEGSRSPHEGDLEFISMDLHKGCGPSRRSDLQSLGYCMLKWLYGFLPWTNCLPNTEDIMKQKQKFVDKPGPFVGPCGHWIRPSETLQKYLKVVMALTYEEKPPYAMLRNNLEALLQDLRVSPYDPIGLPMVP
UniProt O15371, whole entry: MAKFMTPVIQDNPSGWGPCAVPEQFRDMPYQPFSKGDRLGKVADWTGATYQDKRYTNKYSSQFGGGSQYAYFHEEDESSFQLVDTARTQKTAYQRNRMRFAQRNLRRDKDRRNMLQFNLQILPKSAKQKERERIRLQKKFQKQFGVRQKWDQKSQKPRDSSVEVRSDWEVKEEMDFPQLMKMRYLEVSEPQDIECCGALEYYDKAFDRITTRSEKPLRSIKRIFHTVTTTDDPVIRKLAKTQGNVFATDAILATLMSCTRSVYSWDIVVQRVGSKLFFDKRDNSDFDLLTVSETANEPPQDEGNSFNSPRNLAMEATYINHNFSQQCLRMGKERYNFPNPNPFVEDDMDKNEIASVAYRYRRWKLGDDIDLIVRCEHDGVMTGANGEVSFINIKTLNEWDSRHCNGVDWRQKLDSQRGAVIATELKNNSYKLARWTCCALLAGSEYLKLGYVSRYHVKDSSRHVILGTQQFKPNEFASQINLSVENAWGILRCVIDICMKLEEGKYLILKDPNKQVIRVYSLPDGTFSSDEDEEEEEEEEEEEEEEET
UniProt O60861: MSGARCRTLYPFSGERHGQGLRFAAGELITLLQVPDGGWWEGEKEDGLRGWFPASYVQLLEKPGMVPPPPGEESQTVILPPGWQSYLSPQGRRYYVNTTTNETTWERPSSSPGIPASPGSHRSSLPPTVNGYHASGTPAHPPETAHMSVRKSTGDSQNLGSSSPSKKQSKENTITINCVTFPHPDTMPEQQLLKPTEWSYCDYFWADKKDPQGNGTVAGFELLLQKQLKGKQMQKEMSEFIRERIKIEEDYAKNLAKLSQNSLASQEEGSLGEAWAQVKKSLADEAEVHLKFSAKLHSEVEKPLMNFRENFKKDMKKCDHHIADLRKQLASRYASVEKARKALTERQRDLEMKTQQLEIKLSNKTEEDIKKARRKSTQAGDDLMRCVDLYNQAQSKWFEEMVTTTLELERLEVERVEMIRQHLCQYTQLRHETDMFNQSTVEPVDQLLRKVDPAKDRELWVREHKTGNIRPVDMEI

Compound: Nc1nc2c(ncn2[C@@H]2O[C@H](COP(=O)(O)OP(=O)(O)OP(=O)(O)O)[C@@H](O)[C@H]2O)c(=O)[nH]1 [guanosine triphosphate]
Assay: NP40-soluble protein abundance relative to vehicle (solubility fold change) (ratio); higher = more soluble protein in presence of GTP
Procedure, shortened: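 Jurkat crude lysate (Dounce-homogenised) was treated with eight concentrations from 0.1 to 10 mM for 10 min at room temperature, then 3 min at 37 °C. It was solubilised with 0.8% NP40 and benzonase (60 min, 4 °C) and ultracentrifuged, and the supernatant was TMT-labelled for LC-MS/MS. Intensities were vsn-normalised, and the value is the fold change against the NP40-processed vehicle per replicate, from three independent experiments.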

Target	NP40-soluble protein abundance (concentration: 0.1mM)	NP40-soluble protein abundance (concentration: 0.5mM)	NP40-soluble protein abundance (concentration: 1mM)	NP40-soluble protein abundance (concentration: 2mM)	NP40-soluble protein abundance (concentration: 4mM)	NP40-soluble protein abundance (concentration: 6mM)	NP40-soluble protein abundance (concentration: 8mM)	NP40-soluble protein abundance (concentration: 10mM)
IPO8 (UniProt O15397)	1.04 ± 0.022	0.983 ± 0.051	0.972 ± 0.032	0.965 ± 0.054	1.02 ± 0.034	0.989 ± 0.039	0.997 ± 0.029	1.007 ± 0.0078
TXNDC9 (UniProt O14530)	1.05 ± 0.082	1.13 ± 0.11	1.11 ± 0.13	1.15 ± 0.22	1.13 ± 0.21	1.15 ± 0.23	1.1 ± 0.18	1.1 ± 0.2
CHMP2A (UniProt O43633)	0.864 ± 0.033	0.865 ± 0.028	0.997 ± 0.038	0.9971 ± 0.0099	0.979 ± 0.05	0.998 ± 0.037	0.901 ± 0.16	1 ± 0.061
UniProt O15400 and related entries	0.854 ± 0.013	0.806 ± 0.034	0.908 ± 0.02	0.901 ± 0.049	0.907 ± 0.062	0.962 ± 0.093	0.898 ± 0.14	1.02 ± 0.028
STXBP3 (UniProt O00186)	0.996 ± 0.042	1.02 ± 0.064	0.935 ± 0.037	0.905 ± 0.022	0.901 ± 0.019	0.917 ± 0.029	0.8772 ± 0.0075	0.843 ± 0.066
UniProt O43159	1.22 ± 0.084	1.18 ± 0.078	1.2 ± 0.13	1.2 ± 0.096	1.28 ± 0.052	1.26 ± 0.03	1.33 ± 0.038	1.37 ± 0.014
M0QYM7 and related entries (UniProt P04350)	0.947 ± 0.081	0.966 ± 0.088	0.966 ± 0.082	0.976 ± 0.077	0.938 ± 0.092	0.927 ± 0.074	0.911 ± 0.088	0.941 ± 0.079
UniProt O60749 and related entries	0.982 ± 0.021	0.964 ± 0.029	0.956 ± 0.035	0.904 ± 0.034	0.921 ± 0.05	0.912 ± 0.048	0.916 ± 0.055	0.89 ± 0.03
UniProt O60645 and related entries	1.03 ± 0.057	1.02 ± 0.034	1.01 ± 0.046	0.98 ± 0.052	0.996 ± 0.051	0.982 ± 0.065	0.978 ± 0.072	0.976 ± 0.055
NDUFS4 (UniProt O43181)	1 ± 0.029	1.047 ± 0.0028	1.08 ± 0.053	1.12 ± 0.1	1.09 ± 0.12	1.1 ± 0.12	1.14 ± 0.18	1.1 ± 0.15
M0QYP2 and related entries (UniProt Q9UBE0)	0.999 ± 0.04	1 ± 0.041	0.943 ± 0.039	0.923 ± 0.057	0.9 ± 0.069	0.91 ± 0.056	0.896 ± 0.045	0.87 ± 0.069
KPNA6 (UniProt O60684)	1.01 ± 0.04	1.02 ± 0.019	1.01 ± 0.019	1.01 ± 0.023	0.996 ± 0.021	0.984 ± 0.029	0.998 ± 0.051	1.01 ± 0.044
M0QZM1 and related entries (UniProt P52272)	1 ± 0.057	1.05 ± 0.049	1.11 ± 0.064	1.12 ± 0.08	1.17 ± 0.083	1.12 ± 0.1	1.19 ± 0.087	1.16 ± 0.083
LANCL1 (UniProt O43813)	1.03 ± 0.0069	1.03 ± 0.045	0.924 ± 0.03	0.954 ± 0.065	0.899 ± 0.054	0.907 ± 0.049	0.85 ± 0.04	0.863 ± 0.089
AGPS (UniProt O00116)	0.9782 ± 0.0089	1.01 ± 0.037	0.92 ± 0.015	0.925 ± 0.04	0.897 ± 0.045	0.907 ± 0.041	0.869 ± 0.019	0.852 ± 0.052
UniProt O14965 and related entries	1.03 ± 0.041	1.05 ± 0.063	0.997 ± 0.094	0.998 ± 0.099	1.04 ± 0.073	1 ± 0.098	1.08 ± 0.083	1.08 ± 0.053
SLC35A4 (UniProt L0R6Q1)	0.889 ± 0.19	0.805 ± 0.12	1.03 ± 0.22	0.987 ± 0.07	0.997 ± 0.2	0.989 ± 0.086	0.859 ± 0.2	1.01 ± 0.15
SLC16A7 (UniProt O60669)	1.09 ± 0.034	0.98 ± 0.24	1.143 ± 0.0046	1.06 ± 0.15	1.1 ± 0.079	0.966 ± 0.15	1.12 ± 0.089	1.05 ± 0.16
UniProt O60830 and related entries	1.82 ± 0.63	1 ± 0.039	0.957 ± 0.15	1.01 ± 0.13	1 ± 0.11	0.969 ± 0.13	0.942 ± 0.051	0.955 ± 0.045
NDUFS5 (UniProt O43920)	0.989 ± 0.13	0.976 ± 0.11	1.16 ± 0.18	1.22 ± 0.15	1.18 ± 0.19	1.17 ± 0.15	1.19 ± 0.21	1.19 ± 0.19
TOR1B (UniProt O14657)	1.02 ± 0.036	0.983 ± 0.12	0.911 ± 0.064	1.04 ± 0.024	0.957 ± 0.0046	0.996 ± 0.13	0.8772 ± 0.0067	0.895 ± 0.023
UniProt O00154-4|K7EKP8	0.933 ± 0.058	0.94 ± 0.066	0.892 ± 0.044	0.902 ± 0.045	0.907 ± 0.046	0.89 ± 0.043	0.873 ± 0.069	0.866 ± 0.046
UniProt O60711 and related entries	1.04 ± 0.084	1.06 ± 0.071	0.994 ± 0.073	0.997 ± 0.12	0.98 ± 0.086	0.969 ± 0.11	0.969 ± 0.088	0.974 ± 0.12
UniProt O60784 and related entries	0.885 ± 0.072	0.836 ± 0.06	0.869 ± 0.069	0.835 ± 0.089	0.86 ± 0.077	0.847 ± 0.098	0.829 ± 0.09	0.86 ± 0.067
DNAJA2 (UniProt O60884)	0.969 ± 0.024	0.996 ± 0.028	1 ± 0.038	0.992 ± 0.015	1.01 ± 0.031	1.04 ± 0.038	1.04 ± 0.062	1.01 ± 0.041
UniProt O60551 and related entries	1.1 ± 0.021	1.091 ± 0.0049	1.12 ± 0.066	1.108 ± 0.0057	1.19 ± 0.099	1.17 ± 0.015	1.236 ± 0.012	1.149 ± 0.011
KIN (UniProt O60870)	0.9988 ± 0.0042	0.993 ± 0.013	0.9497 ± 0.0058	0.929 ± 0.029	0.916 ± 0.021	0.908 ± 0.024	0.9015 ± 0.007	0.885 ± 0.053
M0QYA8 and related entries (UniProt Q8IV63)	1.01 ± 0.04	1.061 ± 0.0092	1.13 ± 0.058	1.2 ± 0.041	1.28 ± 0.058	1.26 ± 0.042	1.31 ± 0.081	1.29 ± 0.083
UniProt O15371 and related entries	1.05 ± 0.05	1.08 ± 0.069	1.03 ± 0.095	1.13 ± 0.15	1.27 ± 0.2	1.36 ± 0.27	1.46 ± 0.22	1.6 ± 0.27
UniProt O60861 and related entries	1 ± 0.02	1.01 ± 0.071	1.01 ± 0.047	0.94 ± 0.063	0.935 ± 0.035	0.929 ± 0.04	0.978 ± 0.046	0.888 ± 0.06

Laid out differently: entries from further up.
UniProt O60551 and related entries
  NP40-soluble protein abundance (concentration: 0.1mM): 1.1 ± 0.021; NP40-soluble protein abundance (concentration: 0.5mM): 1.091 ± 0.0049; NP40-soluble protein abundance (concentration: 1mM): 1.12 ± 0.066; NP40-soluble protein abundance (concentration: 2mM): 1.108 ± 0.0057; NP40-soluble protein abundance (concentration: 4mM): 1.19 ± 0.099; NP40-soluble protein abundance (concentration: 6mM): 1.17 ± 0.015; NP40-soluble protein abundance (concentration: 8mM): 1.236 ± 0.012; NP40-soluble protein abundance (concentration: 10mM): 1.149 ± 0.011
KIN (UniProt O60870)
  NP40-soluble protein abundance (concentration: 0.1mM): 0.9988 ± 0.0042; NP40-soluble protein abundance (concentration: 0.5mM): 0.993 ± 0.013; NP40-soluble protein abundance (concentration: 1mM): 0.9497 ± 0.0058; NP40-soluble protein abundance (concentration: 2mM): 0.929 ± 0.029; NP40-soluble protein abundance (concentration: 4mM): 0.916 ± 0.021; NP40-soluble protein abundance (concentration: 6mM): 0.908 ± 0.024; NP40-soluble protein abundance (concentration: 8mM): 0.9015 ± 0.007; NP40-soluble protein abundance (concentration: 10mM): 0.885 ± 0.053
